From article PMC10889294

T1: Full-length THSD1-FLAG (UniProt Q9NS62)
T1 sequence: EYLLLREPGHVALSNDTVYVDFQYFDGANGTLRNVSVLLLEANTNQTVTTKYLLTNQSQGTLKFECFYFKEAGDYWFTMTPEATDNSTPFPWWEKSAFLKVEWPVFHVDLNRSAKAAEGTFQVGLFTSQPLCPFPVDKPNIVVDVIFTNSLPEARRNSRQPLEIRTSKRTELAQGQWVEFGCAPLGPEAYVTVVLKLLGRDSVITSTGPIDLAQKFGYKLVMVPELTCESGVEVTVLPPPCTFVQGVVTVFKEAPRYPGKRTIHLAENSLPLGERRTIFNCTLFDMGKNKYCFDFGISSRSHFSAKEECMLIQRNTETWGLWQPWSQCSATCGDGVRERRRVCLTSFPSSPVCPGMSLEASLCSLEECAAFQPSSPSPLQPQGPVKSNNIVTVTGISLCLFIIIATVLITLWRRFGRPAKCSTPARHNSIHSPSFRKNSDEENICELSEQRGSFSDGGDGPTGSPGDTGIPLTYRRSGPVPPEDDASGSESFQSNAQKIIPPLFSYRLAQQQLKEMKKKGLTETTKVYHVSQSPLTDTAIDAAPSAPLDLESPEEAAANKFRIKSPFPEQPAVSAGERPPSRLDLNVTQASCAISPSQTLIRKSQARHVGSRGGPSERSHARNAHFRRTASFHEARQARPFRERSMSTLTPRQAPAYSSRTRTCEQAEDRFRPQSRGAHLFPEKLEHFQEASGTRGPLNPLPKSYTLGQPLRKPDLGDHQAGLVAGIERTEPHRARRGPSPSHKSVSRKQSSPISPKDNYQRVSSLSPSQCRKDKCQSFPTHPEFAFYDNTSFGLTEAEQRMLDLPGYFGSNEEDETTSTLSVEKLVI


What was measured:
Full-length THSD1-FLAG = biological target: T1, Full-length THSD1-FLAG; assay: co-IP; anti-FLAG immunoprecipitation from lysates of HBMECs with THSD1-FLAG induced by doxycycline (100 ng/mL, 48 h); Western blot for talin and THSD1
[1] = biological target: talin, endogenous (human (endogenous in HBMECs)); assay: co-IP; immunoprecipitation with anti-talin antibodies from lysates of HBMECs treated with control or talin siRNA (5 nM, 48 h); Western blot for THSD1; both proteins endogenous

binding (Full-length THSD1-FLAG) | binding [1] | Molecule
binds | – | talin, endogenous (human (endogenous in HBMECs))
– | binds | Thrombospondin Type 1 Domain-Containing Protein 1 (THSD1), endogenous (protein, UniProt Q9NS62 25-852) EYLLLREPGHVALSNDTVYVDFQYFDGANGTLRNVSVLLLEANTNQTVTTKYLLTNQSQGTLKFECFYFKEAGDYWFTMTPEATDNSTPFPWWEKSAFLKVEWPVFHVDLNRSAKAAEGTFQVGLFTSQPLCPFPVDKPNIVVDVIFTNSLPEARRNSRQPLEIRTSKRTELAQGQWVEFGCAPLGPEAYVTVVLKLLGRDSVITSTGPIDLAQKFGYKLVMVPELTCESGVEVTVLPPPCTFVQGVVTVFKEAPRYPGKRTIHLAENSLPLGERRTIFNCTLFDMGKNKYCFDFGISSRSHFSAKEECMLIQRNTETWGLWQPWSQCSATCGDGVRERRRVCLTSFPSSPVCPGMSLEASLCSLEECAAFQPSSPSPLQPQGPVKSNNIVTVTGISLCLFIIIATVLITLWRRFGRPAKCSTPARHNSIHSPSFRKNSDEENICELSEQRGSFSDGGDGPTGSPGDTGIPLTYRRSGPVPPEDDASGSESFQSNAQKIIPPLFSYRLAQQQLKEMKKKGLTETTKVYHVSQSPLTDTAIDAAPSAPLDLESPEEAAANKFRIKSPFPEQPAVSAGERPPSRLDLNVTQASCAISPSQTLIRKSQARHVGSRGGPSERSHARNAHFRRTASFHEARQARPFRERSMSTLTPRQAPAYSSRTRTCEQAEDRFRPQSRGAHLFPEKLEHFQEASGTRGPLNPLPKSYTLGQPLRKPDLGDHQAGLVAGIERTEPHRARRGPSPSHKSVSRKQSSPISPKDNYQRVSSLSPSQCRKDKCQSFPTHPEFAFYDNTSFGLTEAEQRMLDLPGYFGSNEEDETTSTLSVEKLVI

These are yes or no findings as the source states them, for the method shown. Binding seen in cells or lysates may run through a third protein. Binding calls can cover weak binding; strength is not graded here. For some assays here: Where a sequence is shown, tags or fusion partners need not be part of it.
